This is an account of results in paper PMC3179509.

By UniProt entry, the sequences of proteins in these tests, tags left out.
UniProt O75376: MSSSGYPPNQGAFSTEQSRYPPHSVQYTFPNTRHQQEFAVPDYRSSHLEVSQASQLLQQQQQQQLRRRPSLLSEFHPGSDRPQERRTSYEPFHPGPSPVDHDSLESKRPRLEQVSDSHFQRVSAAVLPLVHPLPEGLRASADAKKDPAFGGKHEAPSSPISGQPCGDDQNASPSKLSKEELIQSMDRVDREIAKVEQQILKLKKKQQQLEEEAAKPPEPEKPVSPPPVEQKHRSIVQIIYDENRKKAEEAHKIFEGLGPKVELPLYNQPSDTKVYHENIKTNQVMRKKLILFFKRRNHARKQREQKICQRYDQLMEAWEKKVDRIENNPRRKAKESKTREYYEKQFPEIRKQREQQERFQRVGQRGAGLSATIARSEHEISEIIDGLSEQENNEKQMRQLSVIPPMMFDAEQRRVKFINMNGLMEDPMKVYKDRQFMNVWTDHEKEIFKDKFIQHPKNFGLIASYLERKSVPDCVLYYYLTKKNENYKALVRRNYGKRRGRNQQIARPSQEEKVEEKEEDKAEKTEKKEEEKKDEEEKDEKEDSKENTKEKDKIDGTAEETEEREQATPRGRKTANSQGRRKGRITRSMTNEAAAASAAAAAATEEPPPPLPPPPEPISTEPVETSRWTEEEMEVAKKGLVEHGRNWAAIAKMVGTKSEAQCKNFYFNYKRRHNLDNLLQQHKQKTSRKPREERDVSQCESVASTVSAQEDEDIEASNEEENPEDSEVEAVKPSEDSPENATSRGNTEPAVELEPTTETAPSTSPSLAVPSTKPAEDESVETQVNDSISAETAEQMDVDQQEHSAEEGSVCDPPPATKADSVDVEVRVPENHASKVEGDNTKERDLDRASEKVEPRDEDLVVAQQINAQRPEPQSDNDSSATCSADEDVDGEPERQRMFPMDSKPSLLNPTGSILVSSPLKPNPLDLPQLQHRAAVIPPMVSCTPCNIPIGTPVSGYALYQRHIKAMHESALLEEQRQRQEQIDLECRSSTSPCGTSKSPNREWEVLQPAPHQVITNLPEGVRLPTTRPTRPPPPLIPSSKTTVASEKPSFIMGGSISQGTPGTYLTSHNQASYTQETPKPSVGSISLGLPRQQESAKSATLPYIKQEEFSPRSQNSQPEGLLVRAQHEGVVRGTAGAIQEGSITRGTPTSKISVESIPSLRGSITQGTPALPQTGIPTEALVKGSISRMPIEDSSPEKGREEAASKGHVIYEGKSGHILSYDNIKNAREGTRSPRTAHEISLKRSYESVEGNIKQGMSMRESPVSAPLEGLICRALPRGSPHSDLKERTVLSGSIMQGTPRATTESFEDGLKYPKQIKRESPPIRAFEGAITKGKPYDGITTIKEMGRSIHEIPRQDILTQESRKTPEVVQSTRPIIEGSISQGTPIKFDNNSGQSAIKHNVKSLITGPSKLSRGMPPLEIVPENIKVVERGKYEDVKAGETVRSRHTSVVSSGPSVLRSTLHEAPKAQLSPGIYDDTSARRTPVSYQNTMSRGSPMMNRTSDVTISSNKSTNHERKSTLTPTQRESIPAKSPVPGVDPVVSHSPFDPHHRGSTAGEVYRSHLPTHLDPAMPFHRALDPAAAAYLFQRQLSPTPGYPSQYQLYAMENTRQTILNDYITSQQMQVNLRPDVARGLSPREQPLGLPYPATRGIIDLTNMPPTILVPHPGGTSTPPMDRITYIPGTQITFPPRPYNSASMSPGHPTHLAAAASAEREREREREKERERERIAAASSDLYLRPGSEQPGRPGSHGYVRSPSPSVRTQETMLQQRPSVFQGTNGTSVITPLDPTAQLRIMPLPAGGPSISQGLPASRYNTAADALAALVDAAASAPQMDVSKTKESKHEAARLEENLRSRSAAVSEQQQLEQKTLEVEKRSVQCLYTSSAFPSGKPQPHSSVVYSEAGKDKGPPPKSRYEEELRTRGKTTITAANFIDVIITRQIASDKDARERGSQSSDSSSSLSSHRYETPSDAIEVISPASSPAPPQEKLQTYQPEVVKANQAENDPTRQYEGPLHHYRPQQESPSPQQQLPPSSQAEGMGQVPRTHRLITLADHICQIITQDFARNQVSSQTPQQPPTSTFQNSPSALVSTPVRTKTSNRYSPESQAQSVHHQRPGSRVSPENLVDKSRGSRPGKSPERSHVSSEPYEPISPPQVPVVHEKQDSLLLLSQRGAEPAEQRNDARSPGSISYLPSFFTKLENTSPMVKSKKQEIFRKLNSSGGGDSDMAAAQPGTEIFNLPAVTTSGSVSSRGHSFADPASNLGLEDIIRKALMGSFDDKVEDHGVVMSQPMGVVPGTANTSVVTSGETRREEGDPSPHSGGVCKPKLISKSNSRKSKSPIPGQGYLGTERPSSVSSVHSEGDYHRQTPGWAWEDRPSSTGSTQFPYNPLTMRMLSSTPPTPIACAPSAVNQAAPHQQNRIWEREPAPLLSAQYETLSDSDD
UniProt P11142: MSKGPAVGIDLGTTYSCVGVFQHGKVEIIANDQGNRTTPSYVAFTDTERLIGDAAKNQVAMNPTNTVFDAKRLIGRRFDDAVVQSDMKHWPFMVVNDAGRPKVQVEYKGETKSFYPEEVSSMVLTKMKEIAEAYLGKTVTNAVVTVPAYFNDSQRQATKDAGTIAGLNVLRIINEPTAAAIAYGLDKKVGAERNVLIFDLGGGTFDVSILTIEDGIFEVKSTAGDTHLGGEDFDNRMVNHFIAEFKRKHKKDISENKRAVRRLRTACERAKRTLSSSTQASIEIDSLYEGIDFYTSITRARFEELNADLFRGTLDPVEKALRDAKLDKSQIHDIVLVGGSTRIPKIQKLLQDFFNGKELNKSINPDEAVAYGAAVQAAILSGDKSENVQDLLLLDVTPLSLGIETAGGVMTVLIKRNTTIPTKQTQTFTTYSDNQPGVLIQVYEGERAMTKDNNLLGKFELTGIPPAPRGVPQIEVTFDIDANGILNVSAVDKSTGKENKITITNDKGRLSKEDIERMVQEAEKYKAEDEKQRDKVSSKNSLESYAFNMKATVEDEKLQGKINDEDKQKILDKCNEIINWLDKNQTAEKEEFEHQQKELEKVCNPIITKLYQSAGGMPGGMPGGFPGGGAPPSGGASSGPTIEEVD

Results are given in words; binding and its absence hold for the method and conditions named. Binding seen in cells or lysates may run through a third protein. Some results given as binding are weak or reduced against the parent protein; the word gives no strength.

Assay [1] has as its target Flag-tagged N-CoR (nuclear receptor co-repressor) (UniProt O75376). In words: co-IP; protease-depleted fractionates of H2170 cells incubated with flag-tagged N-CoR (extract of transfected 293T cells) in IP buffer (40 mM Tris-HCl pH 7.4, 150 mM NaCl, 0.5 mM EDTA, 0.75 mM MgCl2, 0.25% NP-40), 4°C; anti-flag M2 affinity gel; blot with Hsc70 antibody.
Assay [2] has as its target Hsc70 (human (endogenous in H2170)) (UniProt P11142). In words: co-IP; lysates of vehicle or Kaletra treated (5 µM, 96 hours) H2170 cells; Hsc70 antibody and protein G beads, 4°C; blot with N-CoR antibody.

Regarding Hsc70 (from UniProt P11142 1-646), the binding entry in assay [1] is listed as “binds”.

“Nuclear receptor co-repressor (N-CoR), endogenous in H2170 cells (from UniProt O75376 1-2440)”: the binding result in assay [2] is listed as “binds”.
